These are yes or no findings as the source states them, for the method shown. In cells and extracts the contact can be indirect. Some binding calls cover weakened binding; strength is not graded here.

Sequences of proteins named here, by UniProt entry; tags and fusion partners are left off.
UniProt Q01082: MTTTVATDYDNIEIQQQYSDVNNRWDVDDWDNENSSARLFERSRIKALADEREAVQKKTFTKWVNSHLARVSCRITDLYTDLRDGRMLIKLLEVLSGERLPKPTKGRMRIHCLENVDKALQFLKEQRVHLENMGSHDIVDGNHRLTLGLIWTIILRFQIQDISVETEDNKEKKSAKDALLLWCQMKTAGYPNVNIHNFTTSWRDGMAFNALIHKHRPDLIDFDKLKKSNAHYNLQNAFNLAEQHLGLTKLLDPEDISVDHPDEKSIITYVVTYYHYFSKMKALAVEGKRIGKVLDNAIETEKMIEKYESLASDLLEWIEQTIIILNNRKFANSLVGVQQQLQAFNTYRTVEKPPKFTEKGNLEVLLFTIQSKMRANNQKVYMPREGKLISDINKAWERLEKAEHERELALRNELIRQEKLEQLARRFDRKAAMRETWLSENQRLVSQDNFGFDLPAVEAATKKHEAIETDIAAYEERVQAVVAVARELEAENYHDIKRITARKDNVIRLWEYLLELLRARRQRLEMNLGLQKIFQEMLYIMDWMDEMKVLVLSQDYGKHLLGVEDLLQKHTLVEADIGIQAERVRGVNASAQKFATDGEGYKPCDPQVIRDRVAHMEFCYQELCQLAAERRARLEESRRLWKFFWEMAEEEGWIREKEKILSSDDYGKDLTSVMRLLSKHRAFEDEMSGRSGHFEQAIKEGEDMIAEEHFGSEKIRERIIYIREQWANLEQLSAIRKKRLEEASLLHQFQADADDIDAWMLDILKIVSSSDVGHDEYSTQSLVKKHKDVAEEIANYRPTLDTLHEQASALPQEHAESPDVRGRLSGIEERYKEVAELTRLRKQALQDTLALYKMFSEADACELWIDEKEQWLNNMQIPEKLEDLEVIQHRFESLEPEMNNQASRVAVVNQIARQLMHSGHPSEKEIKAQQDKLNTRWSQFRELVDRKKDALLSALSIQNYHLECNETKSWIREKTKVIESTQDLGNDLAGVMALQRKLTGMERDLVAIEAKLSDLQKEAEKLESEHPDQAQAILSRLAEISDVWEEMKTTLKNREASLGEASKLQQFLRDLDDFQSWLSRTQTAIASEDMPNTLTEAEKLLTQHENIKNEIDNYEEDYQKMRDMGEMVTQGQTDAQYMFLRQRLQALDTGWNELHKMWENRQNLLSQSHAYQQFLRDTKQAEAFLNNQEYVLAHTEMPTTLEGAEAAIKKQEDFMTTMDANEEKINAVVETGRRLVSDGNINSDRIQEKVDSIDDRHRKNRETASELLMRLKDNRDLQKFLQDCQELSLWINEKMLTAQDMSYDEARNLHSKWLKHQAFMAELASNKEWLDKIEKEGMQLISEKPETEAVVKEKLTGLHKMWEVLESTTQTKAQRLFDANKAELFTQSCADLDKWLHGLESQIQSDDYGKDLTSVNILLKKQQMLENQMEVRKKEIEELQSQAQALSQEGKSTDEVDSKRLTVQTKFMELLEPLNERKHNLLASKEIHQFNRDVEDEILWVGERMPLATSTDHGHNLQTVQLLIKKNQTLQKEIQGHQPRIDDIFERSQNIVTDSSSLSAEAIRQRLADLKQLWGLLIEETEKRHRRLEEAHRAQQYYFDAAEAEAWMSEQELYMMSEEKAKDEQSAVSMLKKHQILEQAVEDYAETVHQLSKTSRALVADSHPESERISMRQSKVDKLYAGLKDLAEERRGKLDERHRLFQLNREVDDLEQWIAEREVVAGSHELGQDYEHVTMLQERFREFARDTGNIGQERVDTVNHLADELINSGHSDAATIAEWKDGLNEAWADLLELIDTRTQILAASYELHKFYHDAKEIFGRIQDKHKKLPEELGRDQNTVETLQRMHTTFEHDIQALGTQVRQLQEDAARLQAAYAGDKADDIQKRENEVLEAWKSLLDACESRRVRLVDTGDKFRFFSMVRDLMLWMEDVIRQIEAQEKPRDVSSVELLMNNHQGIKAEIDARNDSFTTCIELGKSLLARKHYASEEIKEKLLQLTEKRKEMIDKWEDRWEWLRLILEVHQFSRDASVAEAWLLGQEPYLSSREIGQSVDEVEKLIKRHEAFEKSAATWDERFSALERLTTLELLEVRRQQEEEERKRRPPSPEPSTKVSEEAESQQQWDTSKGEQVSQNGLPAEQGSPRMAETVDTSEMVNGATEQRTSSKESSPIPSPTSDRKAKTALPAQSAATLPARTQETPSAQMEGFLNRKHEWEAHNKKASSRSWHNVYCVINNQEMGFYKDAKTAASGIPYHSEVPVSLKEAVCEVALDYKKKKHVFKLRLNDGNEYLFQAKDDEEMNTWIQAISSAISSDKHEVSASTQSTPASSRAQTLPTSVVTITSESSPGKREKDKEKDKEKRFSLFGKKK
UniProt P35222: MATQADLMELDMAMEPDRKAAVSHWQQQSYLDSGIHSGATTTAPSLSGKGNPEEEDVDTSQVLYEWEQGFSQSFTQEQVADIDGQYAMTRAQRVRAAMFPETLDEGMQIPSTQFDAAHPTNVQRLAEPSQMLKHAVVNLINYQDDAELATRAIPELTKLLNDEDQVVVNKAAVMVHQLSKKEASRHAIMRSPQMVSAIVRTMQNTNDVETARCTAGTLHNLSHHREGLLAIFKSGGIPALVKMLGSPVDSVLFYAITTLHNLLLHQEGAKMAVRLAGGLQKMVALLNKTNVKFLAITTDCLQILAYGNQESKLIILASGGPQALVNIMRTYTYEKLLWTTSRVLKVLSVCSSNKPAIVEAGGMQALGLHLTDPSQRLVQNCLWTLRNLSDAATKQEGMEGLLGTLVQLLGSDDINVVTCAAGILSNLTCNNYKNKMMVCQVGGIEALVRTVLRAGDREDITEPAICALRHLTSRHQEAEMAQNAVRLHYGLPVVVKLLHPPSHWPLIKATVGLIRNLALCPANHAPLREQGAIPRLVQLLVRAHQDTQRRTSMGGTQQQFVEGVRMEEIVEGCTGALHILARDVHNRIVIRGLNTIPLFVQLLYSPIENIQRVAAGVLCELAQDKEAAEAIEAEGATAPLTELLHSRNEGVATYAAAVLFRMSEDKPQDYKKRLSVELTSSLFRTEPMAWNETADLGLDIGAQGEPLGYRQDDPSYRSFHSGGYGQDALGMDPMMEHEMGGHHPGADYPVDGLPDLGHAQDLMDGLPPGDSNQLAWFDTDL

The results in this text go back to paper PMC11967833.

Test [1] concerns the target Spectrin beta, non‐erythrocytic 1 (SPTBN1) (human (endogenous in SNU-449 and LM3)) (UniProt Q01082). Kind of test: co-IP; IP with anti-SPTBN1 antibody on protein A/G magnetic beads from lysates of SNU-449 and LM3 cells transfected with negative control or HCETSR (tRF); lysis buffer 20 mM Tris-HCl, 100 mM KCl, 5 mM MgCl2, 0.5% NP-40, pH 7.5; overnight at 4 °C; immunoblotting for the catenins.

In test [2] the target is β‐catenin (human (endogenous in SNU-449 and LM3)) (UniProt P35222). Kind of test: co-IP; IP with anti-β-catenin antibody on protein A/G magnetic beads from lysates of SNU-449 and LM3 cells transfected with negative control or HCETSR (tRF); lysis buffer 20 mM Tris-HCl, 100 mM KCl, 5 mM MgCl2, 0.5% NP-40, pH 7.5; overnight at 4 °C; immunoblotting for α-catenin and P120-catenin. (In general: A western blot detects proteins with antibodies after separation by electrophoresis.)

For β‐catenin (from UniProt P35222 1-781), the binding entry in test [1] is “binds”.

B1: P120‐catenin (protein, UniProt O60716 1-968)
chain: MDDSEVESTASILASVKEQEAQFEKLTRALEEERRHVSAQLERVRVSPQDANPLMANGTLTRRHQNGRFVGDADLERQKFSDLKLNGPQDHSHLLYSTIPRMQEPGQIVETYTEEDPEGAMSVVSVETSDDGTTRRTETTVKKVVKTVTTRTVQPVAMGPDGLPVDASSVSNNYIQTLGRDFRKNGNGGPGPYVGQAGTATLPRNFHYPPDGYSRHYEDGYPGGSDNYGSLSRVTRIEERYRPSMEGYRAPSRQDVYGPQPQVRVGGSSVDLHRFHPEPYGLEDDQRSMGYDDLDYGMMSDYGTARRTGTPSDPRRRLRSYEDMIGEEVPSDQYYWAPLAQHERGSLASLDSLRKGGPPPPNWRQPELPEVIAMLGFRLDAVKSNAAAYLQHLCYRNDKVKTDVRKLKGIPVLVGLLDHPKKEVHLGACGALKNISFGRDQDNKIAIKNCDGVPALVRLLRKARDMDLTEVITGTLWNLSSHDSIKMEIVDHALHALTDEVIIPHSGWEREPNEDCKPRHIEWESVLTNTAGCLRNVSSERSEARRKLRECDGLVDALIFIVQAEIGQKDSDSKLVENCVCLLRNLSYQVHREIPQAERYQEAAPNVANNTGPHAASCFGAKKGKDEWFSRGKKPIEDPANDTVDFPKRTSPARGYELLFQPEVVRIYISLLKESKTPAILEASAGAIQNLCAGRWTYGRYIRSALRQEKALSAIADLLTNEHERVVKAASGALRNLAVDARNKELIGKHAIPNLVKNLPGGQQNSSWNFSEDTVISILNTINEVIAENLEAAKKLRETQGIEKLVLINKSGNRSEKEVRAAALVLQTIWGYKELRKPLEKEGWKKSDFQVNLNNASRSQSSHSYDDSTLPLIDRNQKSDKKPDREEIQMSNMGSNTKSLDNNYSTPNERGDHNRTLDRSGDLGDMEPLKGTTPLMQDEGQESLEEELDVLVLDDEGGQVSYPSMQKI
Consider B1, for which the binding result in test [1] and in test [2] was “binds” each time.
